± gives the standard deviation of the averaged measurements. The list shows a part of the results. Repeats are few or missing, and single values can be far off.
The compounds below were run on Saccharomyces cerevisiae BY4743 (assay: growth (OD600) relative to untreated control; higher = less growth inhibition). Settings: compound concentration: 133 uM; 20 h.
Protocol: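 NMCCC compounds (133 uM, no IPBC) tested alone against Saccharomyces cerevisiae BY4743 in YPD, 96-well plates, starting OD600 ~0.1. Growth was read as OD600 at 20 h and expressed as % of the untreated control. Single pass.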

Compound	growth
CCN(CCNC(=O)CN1\N=C/C2=C(SC=C2)C1=O)C3=CC=CC=C3	91.6%
CCOC(=O)c1cnn2c1nc(O)c1ccccc12	103%
CCOC(=O)\C1=C(/COC(=O)C2=CC=CC=C2C(=O)C3=CC=CS3)NC(=O)NC1	109%
CCc1noc(CSc2nnc3ccc(S(=O)(=O)N(CC)CC)cn23)n1	98.5%
CCOC1=CC(=CC=C1O)C\2CC(=O)N\C(=C2C#N)SCC(=O)NC3=CC=C(C)C=C3C (centres undefined)	102%
COc1ccc(CCNC(=O)c2ccc(Cn3cc(Cl)cn3)cc2)cc1	88.4%
CC(=O)NC(C(=O)N1CCN(Cc2nnc3n2CCCCC3)CC1)C(C)C (centres undefined)	106%
COC(=O)CNS(=O)(=O)c1ccc(NC(=O)c2cc3c(s2)CCCCCC3)cc1	97.6%
Cc1cc(Cl)ccc1Nc1nc(N)c(C(=O)C(C)C)s1	8.5%
Cn1cnc(S(=O)(=O)N2CC(OCc3ccc(Cl)cc3)C2)c1	87.3%
COC(=O)c1cc(OC)c(OC)cc1NS(=O)(=O)c1ccccc1C(F)(F)F	105%
CC1CC(=O)Nc2cc(S(=O)(=O)N(C)C3CCCCC3)ccc2S1 (centres undefined)	105%
Cc1ccc(CN2C(=O)c3ccccc3C2O)o1 (centres undefined)	99%
CN(C)S(=O)(=O)c1ccc2c(c1)N(CC(=O)N1CCCCCC1)CCS2	101%
CCOC1=CC(=CC=C1O)C\2\C(=C(\N)O\C(=C2C#N)C(C)(C)C)C#N (centres undefined)	108%
CCOC(=O)c1cnc(SCc2nc(-c3ccccc3)oc2C)nc1N	83.4%
Cc1nnc(SC(C)C(=O)c2c[nH]c3ccccc23)s1 (centres undefined)	101%
COC(=O)c1sc2nc(C)nc(N(C)Cc3cccnc3)c2c1C	106%
Cc1cc(N2CCN(CC(=O)N(C)C)CC2)n2nc(C(F)(F)F)nc2n1	87.7%
O=C(Nc1ccc(N2CCCC2)cn1)c1ccc(Cl)cc1	89.8%

Compound	growth
CCN1CCN(c2ccccc2NS(=O)(=O)c2cc(Br)cc(C(=O)O)c2F)CC1	105%
Cc1c(SCCO)c(O)nc2cc3c(cc12)OCO3	92.4 ± 9.8%
COc1ccc(OC)c(C2CCCN2C(=O)COc2ccc(NC(C)=O)cc2)c1 (centres undefined)	107%
CCOC(=O)c1ccc(NC(=O)CSc2nc3[nH]cc(Br)c(C)c-3n2)cc1	87.1%
CN1/C=C(\C=C/C1=O)/C2=N/N(C(O2)C3=CC=C(Cl)C=C3Cl)C(C)=O (centres undefined)	94.4%
COc1ccc(NC(=O)c2ccnc(N3CCC(C)CC3)c2)cc1	90.1%
CCOc1ccccc1NC(=O)CN1C(=O)CCSc2ccccc21	108%
CSc1nc2nc(C)cc(C(F)(F)F)n2n1	109%
CC(NS(=O)(=O)c1ccc(Cl)c(Cl)c1)C(=O)Nc1cccc(C#N)c1 (centres undefined)	109%
Cc1sc(NC(=O)c2cccc(NC(=O)C3CCCO3)c2)c(C#N)c1C (centres undefined)	90.9%
Cc1ccc2cc(C(=O)NCCN3CCS(=O)(=O)CC3)c(C)nc2c1	105%
COC1=CC=CC(=C1)\C2=C\CN(C(=O)N2)C3=CC=CC=C3O	111%
COc1ccc(CN(C)C(=O)c2sc(NC(=O)c3ccco3)cc2C)c(OC)c1	93.6%
COC(CNC(=O)CN1\N=C(\CC2=CC=NC=C2)C3=CC=CC=C3C1=O)OC	102%
O=C(NC1(C(F)(F)F)NC(=O)N(Cc2ccncc2)C1=O)c1ccccc1 (centres undefined)	103%
Cc1ccc(-c2ncccc2C(=O)Nc2cccc(F)c2)s1	103%
COC(=O)c1c(C)[nH]c(C(=O)Cn2nnc(-c3ccc(C(C)C)cc3)n2)c1C	112%
CCOC(=O)c1cn(Cc2ccccc2)nc1-c1ccccc1OC	87.3%
CC(C)(C)c1ccc(C(=O)NCC(=O)OCC(=O)NCc2ccco2)cc1	105%

A run of entries from further up, for reference:
Compound	growth
CCOC1=CC(=CC=C1O)C\2CC(=O)N\C(=C2C#N)SCC(=O)NC3=CC=C(C)C=C3C (centres undefined)	102%
COc1ccc(CCNC(=O)c2ccc(Cn3cc(Cl)cn3)cc2)cc1	88.4%
